Measurements reported in PubChem BioAssay AID1259254 (NCATS, 2017).
Test: 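Finding genes that stop cells copying their DNA twice in one cycle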 (primary screen). Cell system: human HCT116 colorectal cancer cells. Reagent: single siRNA against human genes. Timing: 3 days. Measurement: 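Imaged Hoechst DNA stain sorts each cell into a cycle phase by DNA amount; per plate, G2 fraction set to 0% for non-targeting and 100% for GMNN siRNA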. Scale: G2 robust z-score and G2 cells, % of GMNN control: higher = more G2 cells, more excess DNA replication; raw share of cells in G2: higher = larger share of cells with G2 DNA content. Hit rule: 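An siRNA counts as active if its G2 robust z-score lies at least 5 MADs above the screen median; here such calls match roughly 38% of GMNN control or more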.
Here is an unselected part of about 59,000 reagents tested. About 1,550 of them (2.6%) were called active. 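G2 share is only a proxy for re-replication; each gene was hit by three separate siRNAs, and active genes were retested.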 Raw values vary from plate to plate and are shown uncorrected. Reagents against one gene are numbered here. Not stated in the record: the amount of reagent.

The opening 4 entries, to show the layout:
| Target gene | reagent no. | G2 robust z-score | G2 cells, % of GMNN control | raw share of cells in G2 (%) | activity call |
| --- | --- | --- | --- | --- | --- |
| OR12D3 (olfactory receptor family 12 subfamily D member 3) | 1 | -1.06 | -4.5 | 2.61 | inactive |
| OR12D3 (olfactory receptor family 12 subfamily D member 3) | 2 | -0.602 | -1.26 | 3.08 | inactive |
| OR12D3 (olfactory receptor family 12 subfamily D member 3) | 3 | -0.622 | -1.41 | 1.98 | inactive |
| LCN12 (lipocalin 12) | 1 | 1.67 | 14.7 | 12.3 | inactive |

Main list, repeating the preview:
| Target gene | reagent no. | G2 robust z-score | G2 cells, % of GMNN control | raw share of cells in G2 (%) | activity call |
| --- | --- | --- | --- | --- | --- |
| OR12D3 (olfactory receptor family 12 subfamily D member 3) | 1 | -1.06 | -4.5 | 2.61 | inactive |
| OR12D3 (olfactory receptor family 12 subfamily D member 3) | 2 | -0.602 | -1.26 | 3.08 | inactive |
| OR12D3 (olfactory receptor family 12 subfamily D member 3) | 3 | -0.622 | -1.41 | 1.98 | inactive |
| LCN12 (lipocalin 12) | 1 | 1.67 | 14.7 | 12.3 | inactive |
| LCN12 (lipocalin 12) | 2 | 0.302 | 5.09 | 6.95 | inactive |
| LCN12 (lipocalin 12) | 3 | 0.614 | 7.29 | 6.95 | inactive |
| FKBP6 (FKBP prolyl isomerase family member 6 (inactive)) | 1 | -1.24 | -5.75 | 1.93 | inactive |
| FKBP6 (FKBP prolyl isomerase family member 6 (inactive)) | 2 | 0.965 | 9.76 | 8.2 | inactive |
| FKBP6 (FKBP prolyl isomerase family member 6 (inactive)) | 3 | -0.379 | 0.299 | 5.37 | inactive |
| CUEDC1 (CUE domain containing 1) | 1 | 0.471 | 6.28 | 6.1 | inactive |
| CUEDC1 (CUE domain containing 1) | 2 | -0.496 | -0.524 | 3.31 | inactive |
| CUEDC1 (CUE domain containing 1) | 3 | -0.633 | -1.49 | 4.17 | inactive |
| CPS1 (carbamoyl-phosphate synthase 1) | 1 | -0.169 | 1.78 | 5.6 | inactive |
| CPS1 (carbamoyl-phosphate synthase 1) | 2 | 3.05 | 24.4 | 13.9 | inactive |
| CPS1 (carbamoyl-phosphate synthase 1) | 3 | -0.811 | -2.74 | 3.15 | inactive |
| POLB (DNA polymerase beta) | 1 | 0.756 | 8.29 | 6.9 | inactive |
| POLB (DNA polymerase beta) | 2 | 0.147 | 4 | 6.36 | inactive |
| POLB (DNA polymerase beta) | 3 | 1.56 | 13.9 | 10 | inactive |
| BIRC6 (baculoviral IAP repeat containing 6) | 1 | -0.8 | -2.66 | 4.54 | inactive |
| BIRC6 (baculoviral IAP repeat containing 6) | 2 | -0.779 | -2.51 | 3.46 | inactive |
| BIRC6 (baculoviral IAP repeat containing 6) | 3 | -0.0474 | 2.63 | 5.18 | inactive |
| KLHL29 (kelch like family member 29) | 1 | -0.173 | 1.75 | 4.79 | inactive |
| KLHL29 (kelch like family member 29) | 2 | 0.508 | 6.54 | 5.28 | inactive |
| KLHL29 (kelch like family member 29) | 3 | 0.106 | 3.71 | 2.9 | inactive |
| GNRH1 (gonadotropin releasing hormone 1) | 1 | -0.62 | -1.4 | 4.65 | inactive |
| GNRH1 (gonadotropin releasing hormone 1) | 2 | 0.633 | 7.42 | 6.81 | inactive |
| GNRH1 (gonadotropin releasing hormone 1) | 3 | 0.112 | 3.76 | 4.99 | inactive |
| IFT57 (intraflagellar transport 57) | 1 | -0.0935 | 2.31 | 5.27 | inactive |
| IFT57 (intraflagellar transport 57) | 2 | 7.33 | 54.5 | 27.1 | active |
| IFT57 (intraflagellar transport 57) | 3 | 3.27 | 26 | 17.8 | inactive |
| DCTN4 (dynactin subunit 4) | 1 | 0.432 | 6.01 | 6.15 | inactive |
| DCTN4 (dynactin subunit 4) | 2 | -0.692 | -1.9 | 3.83 | inactive |
| DCTN4 (dynactin subunit 4) | 3 | 3.86 | 30.1 | 12.8 | inactive |
| PRKCI (protein kinase C iota) | 1 | 4.45 | 34.3 | 16.9 | inactive |
| PRKCI (protein kinase C iota) | 2 | -1.53 | -7.77 | 2.79 | inactive |
| PRKCI (protein kinase C iota) | 3 | 1.87 | 16.1 | 9.71 | inactive |
| SDF4 (stromal cell derived factor 4) | 1 | -0.21 | 1.49 | 3.32 | inactive |
| SDF4 (stromal cell derived factor 4) | 2 | 0.69 | 7.82 | 9.44 | inactive |
| SDF4 (stromal cell derived factor 4) | 3 | -0.863 | -3.1 | 2.66 | inactive |
| GPI (glucose-6-phosphate isomerase) | 1 | -1.27 | -5.97 | 3.07 | inactive |
| GPI (glucose-6-phosphate isomerase) | 2 | 3.05 | 24.4 | 14.5 | inactive |
| GPI (glucose-6-phosphate isomerase) | 3 | -0.711 | -2.03 | 2.93 | inactive |
| PIGS (phosphatidylinositol glycan anchor biosynthesis class S) | 1 | 1.19 | 11.4 | 8.65 | inactive |
| PIGS (phosphatidylinositol glycan anchor biosynthesis class S) | 2 | -1.13 | -5 | 1.84 | inactive |
| PIGS (phosphatidylinositol glycan anchor biosynthesis class S) | 3 | 0.195 | 4.34 | 3.09 | inactive |
| BRI3BP (BRI3 binding protein) | 1 | 2.04 | 17.4 | 10.7 | inactive |
| BRI3BP (BRI3 binding protein) | 2 | 0.767 | 8.36 | 5.75 | inactive |
| BRI3BP (BRI3 binding protein) | 3 | -0.328 | 0.66 | 2.82 | inactive |
